According to publication PMC5461540, “MOB1 Mediated Phospho-recognition in the Core Mammalian Hippo Pathway” (Molecular & Cellular Proteomics : MCP, 2017):
Results are given in words; binding and its absence hold for the method and conditions named. In cells and extracts the contact can be indirect. Binding can be weak; no strength is given. Sequences can lack the tags named with a protein.

Protein sequences, listed by entry. Tags and fused reporters are not part of them. Lines headed by an entry give the natural chain unless they say otherwise; changes in a name come on top.
UniProt Q7L9L4: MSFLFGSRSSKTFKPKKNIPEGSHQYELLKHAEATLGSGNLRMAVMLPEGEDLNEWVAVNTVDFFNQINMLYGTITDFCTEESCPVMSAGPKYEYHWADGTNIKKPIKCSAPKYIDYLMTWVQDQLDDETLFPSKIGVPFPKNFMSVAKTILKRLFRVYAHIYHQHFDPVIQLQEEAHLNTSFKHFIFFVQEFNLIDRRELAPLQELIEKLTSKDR

Biological target: GST-MOB1B (human) (UniProt Q7L9L4)
Assay: pull-down; ~1 ug GST-MOB1B on glutathione-Sepharose beads, 2 h with lysate (CHAPS lysis buffer: 40 mM Hepes pH 7.5, 120 mM NaCl, 1 mM EDTA, 0.3% CHAPS) of cells expressing FLAG- or BirA*-FLAG-tagged MST1 constructs after 150 nM okadaic acid for 2.5 h; anti-FLAG immunoblot; only the target purified

Binder | binding
BirA*-FLAG-MST1 aa 328–487 (domain or fragment, UniProt Q13043-1 328-487) GTMVRAVGDEMGTVRVASTMTDGANTMIEHDDTLPSQLGTMVINAEDEEEEGTMKRRDETMQPAKPSFLEYFEQKEKENQINSFGKSVPGPLKNSSDWKIPQDGDYEFLKSWTVEDLQKRLLALDPMMEQEIEEIRQKYQSKRQPILDAIEAKKRRQQNF | binds
3xFLAG-MST1 T353A/T367A double mutant (protein, UniProt Q13043-1 1-487) METVQLRNPPRRQLKKLDEDSLTKQPEEVFDVLEKLGEGSYGSVYKAIHKETGQIVAIKQVPVESDLQEIIKEISIMQQCDSPHVVKYYGSYFKNTDLWIVMEYCGAGSVSDIIRLRNKTLTEDEIATILQSTLKGLEYLHFMRKIHRDIKAGNILLNTEGHAKLADFGVAGQLTDTMAKRNTVIGTPFWMAPEVIQEIGYNCVADIWSLGITAIEMAEGKPPYADIHPMRAIFMIPTNPPPTFRKPELWSDNFTDFVKQCLVKSPEQRATATQLLQHPFVRSAKGVSILRDLINEAMDVKLKRQESQQREVDQDDEENSEEDEMDSGTMVRAVGDEMGTVRVASTMTDGANAMIEHDDTLPSQLGAMVINAEDEEEEGTMKRRDETMQPAKPSFLEYFEQKEKENQINSFGKSVPGPLKNSSDWKIPQDGDYEFLKSWTVEDLQKRLLALDPMMEQEIEEIRQKYQSKRQPILDAIEAKKRRQQNF | binds
3xFLAG-MST1 T353A/T367A/T387A triple mutant (protein, UniProt Q13043-1 1-487) METVQLRNPPRRQLKKLDEDSLTKQPEEVFDVLEKLGEGSYGSVYKAIHKETGQIVAIKQVPVESDLQEIIKEISIMQQCDSPHVVKYYGSYFKNTDLWIVMEYCGAGSVSDIIRLRNKTLTEDEIATILQSTLKGLEYLHFMRKIHRDIKAGNILLNTEGHAKLADFGVAGQLTDTMAKRNTVIGTPFWMAPEVIQEIGYNCVADIWSLGITAIEMAEGKPPYADIHPMRAIFMIPTNPPPTFRKPELWSDNFTDFVKQCLVKSPEQRATATQLLQHPFVRSAKGVSILRDLINEAMDVKLKRQESQQREVDQDDEENSEEDEMDSGTMVRAVGDEMGTVRVASTMTDGANAMIEHDDTLPSQLGAMVINAEDEEEEGTMKRRDEAMQPAKPSFLEYFEQKEKENQINSFGKSVPGPLKNSSDWKIPQDGDYEFLKSWTVEDLQKRLLALDPMMEQEIEEIRQKYQSKRQPILDAIEAKKRRQQNF | binds
BirA*-FLAG-MST1 aa 1–327 (domain or fragment, UniProt Q13043-1 1-327) METVQLRNPPRRQLKKLDEDSLTKQPEEVFDVLEKLGEGSYGSVYKAIHKETGQIVAIKQVPVESDLQEIIKEISIMQQCDSPHVVKYYGSYFKNTDLWIVMEYCGAGSVSDIIRLRNKTLTEDEIATILQSTLKGLEYLHFMRKIHRDIKAGNILLNTEGHAKLADFGVAGQLTDTMAKRNTVIGTPFWMAPEVIQEIGYNCVADIWSLGITAIEMAEGKPPYADIHPMRAIFMIPTNPPPTFRKPELWSDNFTDFVKQCLVKSPEQRATATQLLQHPFVRSAKGVSILRDLINEAMDVKLKRQESQQREVDQDDEENSEEDEMDS | no binding
